Data published in article PMC4530586, “STIL binding to Polo-box 3 of PLK4 regulates centriole duplication” (eLife, 2015).
No constants are given. Whether binding was seen depends on the method and setting. Binding seen in cells or lysates may run through a third protein. Some results given as binding are weak or reduced against the parent protein; the word gives no strength. Sequences can lack the tags named with a protein. Blank lines part the entries; values can stand above or below the molecule they belong to.

Protein sequences, listed by entry. Tags and fused reporters are not part of them.
UniProt O94986: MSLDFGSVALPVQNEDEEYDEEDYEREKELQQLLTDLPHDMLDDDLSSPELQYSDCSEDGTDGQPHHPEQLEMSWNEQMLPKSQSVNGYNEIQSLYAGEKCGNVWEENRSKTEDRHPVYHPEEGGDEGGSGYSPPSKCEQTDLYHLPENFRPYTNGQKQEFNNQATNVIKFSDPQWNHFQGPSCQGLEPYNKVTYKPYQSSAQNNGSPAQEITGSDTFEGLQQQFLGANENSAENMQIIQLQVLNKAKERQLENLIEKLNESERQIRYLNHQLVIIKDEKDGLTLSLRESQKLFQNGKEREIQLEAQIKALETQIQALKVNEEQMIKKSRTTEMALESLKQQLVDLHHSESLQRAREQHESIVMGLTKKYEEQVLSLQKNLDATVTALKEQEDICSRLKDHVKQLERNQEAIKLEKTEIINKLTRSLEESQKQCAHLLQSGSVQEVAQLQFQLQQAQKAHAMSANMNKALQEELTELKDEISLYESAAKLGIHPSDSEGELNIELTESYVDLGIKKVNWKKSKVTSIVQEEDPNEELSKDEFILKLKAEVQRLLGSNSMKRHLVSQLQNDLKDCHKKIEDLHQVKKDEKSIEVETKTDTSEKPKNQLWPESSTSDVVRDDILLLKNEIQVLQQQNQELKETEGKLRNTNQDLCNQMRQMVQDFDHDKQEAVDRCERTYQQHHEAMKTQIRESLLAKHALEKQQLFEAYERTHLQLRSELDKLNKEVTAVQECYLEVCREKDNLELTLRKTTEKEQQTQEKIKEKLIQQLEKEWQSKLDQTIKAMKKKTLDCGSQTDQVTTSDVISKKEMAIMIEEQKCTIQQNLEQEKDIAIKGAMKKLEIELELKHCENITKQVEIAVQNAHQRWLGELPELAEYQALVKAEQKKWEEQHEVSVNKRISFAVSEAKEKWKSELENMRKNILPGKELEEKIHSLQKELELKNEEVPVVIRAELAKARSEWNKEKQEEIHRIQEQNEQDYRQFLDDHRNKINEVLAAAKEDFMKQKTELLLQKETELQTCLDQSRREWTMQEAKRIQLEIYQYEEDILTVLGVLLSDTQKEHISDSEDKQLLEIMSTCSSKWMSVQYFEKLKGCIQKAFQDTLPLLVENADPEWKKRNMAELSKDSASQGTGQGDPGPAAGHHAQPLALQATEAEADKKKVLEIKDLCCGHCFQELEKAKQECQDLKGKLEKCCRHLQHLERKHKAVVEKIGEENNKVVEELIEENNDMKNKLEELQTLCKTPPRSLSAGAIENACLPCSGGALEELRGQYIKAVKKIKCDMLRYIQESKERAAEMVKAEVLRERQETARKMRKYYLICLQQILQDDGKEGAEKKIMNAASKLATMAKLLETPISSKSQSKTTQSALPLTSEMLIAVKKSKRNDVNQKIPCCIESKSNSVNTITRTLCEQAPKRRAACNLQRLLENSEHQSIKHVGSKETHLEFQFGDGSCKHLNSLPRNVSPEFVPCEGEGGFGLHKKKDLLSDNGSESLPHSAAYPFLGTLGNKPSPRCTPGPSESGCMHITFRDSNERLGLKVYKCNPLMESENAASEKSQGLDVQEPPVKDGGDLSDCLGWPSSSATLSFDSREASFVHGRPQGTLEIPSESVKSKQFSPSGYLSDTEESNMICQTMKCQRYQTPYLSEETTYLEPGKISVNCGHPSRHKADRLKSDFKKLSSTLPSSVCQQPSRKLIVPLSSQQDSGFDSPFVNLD

Legend:
[1] = biological target: T1, myc-PLK4 (tetracycline-inducible transgene in U2OS T-REx cells) (human) (UniProt O00444); test: co-IP; anti-myc immunoprecipitation from U2OS T-REx cells with tetracycline-induced myc-PLK4 (24 hr); endogenous partners detected by Western blot
T1 sequence: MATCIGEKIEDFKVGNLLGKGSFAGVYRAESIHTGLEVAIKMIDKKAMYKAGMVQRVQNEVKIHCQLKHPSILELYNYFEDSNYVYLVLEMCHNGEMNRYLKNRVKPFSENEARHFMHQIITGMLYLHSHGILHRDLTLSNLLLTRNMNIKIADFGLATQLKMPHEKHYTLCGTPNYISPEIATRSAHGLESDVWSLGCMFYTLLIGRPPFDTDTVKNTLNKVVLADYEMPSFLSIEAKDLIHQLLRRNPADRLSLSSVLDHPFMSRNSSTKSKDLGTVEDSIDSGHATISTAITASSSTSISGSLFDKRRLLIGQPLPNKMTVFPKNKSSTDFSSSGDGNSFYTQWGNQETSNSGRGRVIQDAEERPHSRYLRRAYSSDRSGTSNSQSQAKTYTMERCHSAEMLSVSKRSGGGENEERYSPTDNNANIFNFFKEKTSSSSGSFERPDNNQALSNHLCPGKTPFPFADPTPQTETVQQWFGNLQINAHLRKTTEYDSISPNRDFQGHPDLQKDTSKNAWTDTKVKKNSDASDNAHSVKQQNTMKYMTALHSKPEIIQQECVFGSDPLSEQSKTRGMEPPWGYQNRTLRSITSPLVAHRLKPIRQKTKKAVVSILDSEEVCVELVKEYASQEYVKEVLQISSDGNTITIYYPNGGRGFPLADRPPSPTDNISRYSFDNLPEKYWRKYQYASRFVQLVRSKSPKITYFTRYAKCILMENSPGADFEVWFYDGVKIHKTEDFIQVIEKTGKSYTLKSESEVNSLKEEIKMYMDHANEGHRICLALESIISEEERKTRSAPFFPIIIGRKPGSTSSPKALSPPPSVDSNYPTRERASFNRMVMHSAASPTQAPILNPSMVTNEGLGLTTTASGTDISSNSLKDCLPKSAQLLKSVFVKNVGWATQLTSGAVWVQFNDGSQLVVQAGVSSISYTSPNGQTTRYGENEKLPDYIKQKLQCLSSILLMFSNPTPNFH

[2] = biological target: T2, FLAG-tagged full-length STIL (human) (UniProt Q15468); test: co-IP; STIL self-association: HEK293T cells co-expressing differently tagged STIL constructs for 24–36 hr; anti-myc or anti-FLAG immunoprecipitation; Western blot
T2 sequence: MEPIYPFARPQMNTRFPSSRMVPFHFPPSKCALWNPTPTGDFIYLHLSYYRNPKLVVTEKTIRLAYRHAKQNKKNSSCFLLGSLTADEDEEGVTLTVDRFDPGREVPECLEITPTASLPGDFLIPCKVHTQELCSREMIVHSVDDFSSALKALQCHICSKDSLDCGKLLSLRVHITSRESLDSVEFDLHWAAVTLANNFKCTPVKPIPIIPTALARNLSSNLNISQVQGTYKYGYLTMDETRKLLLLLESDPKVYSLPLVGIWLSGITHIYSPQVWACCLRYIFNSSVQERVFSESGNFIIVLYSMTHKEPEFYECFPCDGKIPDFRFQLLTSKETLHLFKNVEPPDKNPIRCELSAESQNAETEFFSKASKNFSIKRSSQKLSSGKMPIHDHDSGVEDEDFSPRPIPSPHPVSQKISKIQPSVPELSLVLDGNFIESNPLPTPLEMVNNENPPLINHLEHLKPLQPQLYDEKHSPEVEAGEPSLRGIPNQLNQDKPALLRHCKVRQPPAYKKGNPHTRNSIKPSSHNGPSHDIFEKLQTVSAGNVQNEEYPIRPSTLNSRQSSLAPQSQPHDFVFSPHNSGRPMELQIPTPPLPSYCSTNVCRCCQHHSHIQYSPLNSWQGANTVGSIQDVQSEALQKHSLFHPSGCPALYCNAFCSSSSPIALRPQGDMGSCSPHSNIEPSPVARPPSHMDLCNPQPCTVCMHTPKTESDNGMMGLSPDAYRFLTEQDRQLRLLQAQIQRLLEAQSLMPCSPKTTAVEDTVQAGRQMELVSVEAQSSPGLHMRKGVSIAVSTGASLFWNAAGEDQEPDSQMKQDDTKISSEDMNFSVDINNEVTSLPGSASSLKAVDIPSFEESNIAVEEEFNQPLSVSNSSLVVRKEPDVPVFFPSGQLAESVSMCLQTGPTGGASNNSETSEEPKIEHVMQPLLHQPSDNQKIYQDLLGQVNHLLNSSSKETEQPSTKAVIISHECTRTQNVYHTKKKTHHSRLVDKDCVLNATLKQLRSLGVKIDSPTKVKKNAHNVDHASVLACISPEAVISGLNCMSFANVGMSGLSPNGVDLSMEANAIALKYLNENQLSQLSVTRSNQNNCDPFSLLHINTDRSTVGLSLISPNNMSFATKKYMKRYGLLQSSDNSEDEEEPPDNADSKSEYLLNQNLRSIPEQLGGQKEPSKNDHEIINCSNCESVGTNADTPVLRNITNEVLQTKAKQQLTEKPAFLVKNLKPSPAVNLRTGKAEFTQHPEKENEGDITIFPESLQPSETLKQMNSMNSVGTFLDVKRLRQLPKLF

- binding [1]: binds
Molecule: Cep152 (from UniProt O94986 1-1710)

- binding [2]: binds
B1: FLAG-tagged full-length STIL (protein, UniProt Q15468 1-1287)
chain: T2 sequence

- binding [2]: binds
B2: STIL-ΔSTAN (STIL with the STAN domain removed) (protein, UniProt Q15468)
chain: MEPIYPFARPQMNTRFPSSRMVPFHFPPSKCALWNPTPTGDFIYLHLSYYRNPKLVVTEKTIRLAYRHAKQNKKNSSCFLLGSLTADEDEEGVTLTVDRFDPGREVPECLEITPTASLPGDFLIPCKVHTQELCSREMIVHSVDDFSSALKALQCHICSKDSLDCGKLLSLRVHITSRESLDSVEFDLHWAAVTLANNFKCTPVKPIPIIPTALARNLSSNLNISQVQGTYKYGYLTMDETRKLLLLLESDPKVYSLPLVGIWLSGITHIYSPQVWACCLRYIFNSSVQERVFSESGNFIIVLYSMTHKEPEFYECFPCDGKIPDFRFQLLTSKETLHLFKNVEPPDKNPIRCELSAESQNAETEFFSKASKNFSIKRSSQKLSSGKMPIHDHDSGVEDEDFSPRPIPSPHPVSQKISKIQPSVPELSLVLDGNFIESNPLPTPLEMVNNENPPLINHLEHLKPLQPQLYDEKHSPEVEAGEPSLRGIPNQLNQDKPALLRHCKVRQPPAYKKGNPHTRNSIKPSSHNGPSHDIFEKLQTVSAGNVQNEEYPIRPSTLNSRQSSLAPQSQPHDFVFSPHNSGRPMELQIPTPPLPSYCSTNVCRCCQHHSHIQYSPLNSWQGANTVGSIQDVQSEALQKHSLFHPSGCPALYCNAFCSSSSPIALRPQGDMGSCSPHSNIEPSPVARPPSHMDLCNPQPCTVCMHTPKTESDNGMMGLSPDAYRFLTEQDRQLRLLQAQIQRLLEAQSLMPCSPKTTAVEDTVQAGRQMELVSVEAQSSPGLHMRKGVSIAVSTGASLFWNAAGEDQEPDSQMKQDDTKISSEDMNFSVDINNEVTSLPGSASSLKAVDIPSFEESNIAVEEEFNQPLSVSNSSLVVRKEPDVPVFFPSGQLAESVSMCLQTGPTGGASNNSETSEEPKIEHVMQPLLHQPSDNQKIYQDLLGQVNHLLNSSSKETEQPSTKAVIISHECTRTQNVYHTKKKTHHSRLVDKDCVLNATLKQLRSLGVKIDSPTKVKKNAHNVDHASVLACISPEAVISGLNCMSFANVGMSGLSPNGVDLKSEYLLNQNLRSIPEQLGGQKEPSKNDHEIINCSNCESVGTNADTPVLRNITNEVLQTKAKQQLTEKPAFLVKNLKPSPAVNLRTGKAEFTQHPEKENEGDITIFPESLQPSETLKQMNSMNSVGTFLDVKRLRQLPKLF
